According to article PMC6191444:
Results are given in words; binding and its absence hold for the method and conditions named. Binding seen in cells or lysates may run through a third protein. Some results given as binding are weak or reduced against the parent protein; the word gives no strength. For some of these results: Tags and fused reporters may be left off the sequences shown.

Amino acid sequences for entries named in this document (tags omitted).
UniProt Q8K4B0: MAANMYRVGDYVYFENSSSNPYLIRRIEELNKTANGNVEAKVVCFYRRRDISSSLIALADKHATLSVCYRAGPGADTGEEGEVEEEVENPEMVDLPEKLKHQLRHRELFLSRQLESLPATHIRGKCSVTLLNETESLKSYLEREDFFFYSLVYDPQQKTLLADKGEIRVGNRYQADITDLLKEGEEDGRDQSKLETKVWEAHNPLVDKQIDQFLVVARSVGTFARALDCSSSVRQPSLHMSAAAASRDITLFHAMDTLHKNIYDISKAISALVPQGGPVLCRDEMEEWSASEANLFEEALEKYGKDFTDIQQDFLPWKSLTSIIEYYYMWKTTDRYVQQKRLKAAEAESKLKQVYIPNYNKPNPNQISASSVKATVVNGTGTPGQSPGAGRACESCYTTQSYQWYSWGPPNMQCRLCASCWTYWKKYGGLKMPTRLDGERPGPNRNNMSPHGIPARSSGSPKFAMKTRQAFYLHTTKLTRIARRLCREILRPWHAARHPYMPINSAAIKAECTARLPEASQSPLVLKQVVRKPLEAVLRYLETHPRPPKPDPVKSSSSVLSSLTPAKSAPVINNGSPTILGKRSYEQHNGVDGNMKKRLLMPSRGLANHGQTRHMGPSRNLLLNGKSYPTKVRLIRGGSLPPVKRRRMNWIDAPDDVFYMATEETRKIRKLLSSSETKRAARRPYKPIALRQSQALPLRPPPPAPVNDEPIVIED
UniProt Q14839: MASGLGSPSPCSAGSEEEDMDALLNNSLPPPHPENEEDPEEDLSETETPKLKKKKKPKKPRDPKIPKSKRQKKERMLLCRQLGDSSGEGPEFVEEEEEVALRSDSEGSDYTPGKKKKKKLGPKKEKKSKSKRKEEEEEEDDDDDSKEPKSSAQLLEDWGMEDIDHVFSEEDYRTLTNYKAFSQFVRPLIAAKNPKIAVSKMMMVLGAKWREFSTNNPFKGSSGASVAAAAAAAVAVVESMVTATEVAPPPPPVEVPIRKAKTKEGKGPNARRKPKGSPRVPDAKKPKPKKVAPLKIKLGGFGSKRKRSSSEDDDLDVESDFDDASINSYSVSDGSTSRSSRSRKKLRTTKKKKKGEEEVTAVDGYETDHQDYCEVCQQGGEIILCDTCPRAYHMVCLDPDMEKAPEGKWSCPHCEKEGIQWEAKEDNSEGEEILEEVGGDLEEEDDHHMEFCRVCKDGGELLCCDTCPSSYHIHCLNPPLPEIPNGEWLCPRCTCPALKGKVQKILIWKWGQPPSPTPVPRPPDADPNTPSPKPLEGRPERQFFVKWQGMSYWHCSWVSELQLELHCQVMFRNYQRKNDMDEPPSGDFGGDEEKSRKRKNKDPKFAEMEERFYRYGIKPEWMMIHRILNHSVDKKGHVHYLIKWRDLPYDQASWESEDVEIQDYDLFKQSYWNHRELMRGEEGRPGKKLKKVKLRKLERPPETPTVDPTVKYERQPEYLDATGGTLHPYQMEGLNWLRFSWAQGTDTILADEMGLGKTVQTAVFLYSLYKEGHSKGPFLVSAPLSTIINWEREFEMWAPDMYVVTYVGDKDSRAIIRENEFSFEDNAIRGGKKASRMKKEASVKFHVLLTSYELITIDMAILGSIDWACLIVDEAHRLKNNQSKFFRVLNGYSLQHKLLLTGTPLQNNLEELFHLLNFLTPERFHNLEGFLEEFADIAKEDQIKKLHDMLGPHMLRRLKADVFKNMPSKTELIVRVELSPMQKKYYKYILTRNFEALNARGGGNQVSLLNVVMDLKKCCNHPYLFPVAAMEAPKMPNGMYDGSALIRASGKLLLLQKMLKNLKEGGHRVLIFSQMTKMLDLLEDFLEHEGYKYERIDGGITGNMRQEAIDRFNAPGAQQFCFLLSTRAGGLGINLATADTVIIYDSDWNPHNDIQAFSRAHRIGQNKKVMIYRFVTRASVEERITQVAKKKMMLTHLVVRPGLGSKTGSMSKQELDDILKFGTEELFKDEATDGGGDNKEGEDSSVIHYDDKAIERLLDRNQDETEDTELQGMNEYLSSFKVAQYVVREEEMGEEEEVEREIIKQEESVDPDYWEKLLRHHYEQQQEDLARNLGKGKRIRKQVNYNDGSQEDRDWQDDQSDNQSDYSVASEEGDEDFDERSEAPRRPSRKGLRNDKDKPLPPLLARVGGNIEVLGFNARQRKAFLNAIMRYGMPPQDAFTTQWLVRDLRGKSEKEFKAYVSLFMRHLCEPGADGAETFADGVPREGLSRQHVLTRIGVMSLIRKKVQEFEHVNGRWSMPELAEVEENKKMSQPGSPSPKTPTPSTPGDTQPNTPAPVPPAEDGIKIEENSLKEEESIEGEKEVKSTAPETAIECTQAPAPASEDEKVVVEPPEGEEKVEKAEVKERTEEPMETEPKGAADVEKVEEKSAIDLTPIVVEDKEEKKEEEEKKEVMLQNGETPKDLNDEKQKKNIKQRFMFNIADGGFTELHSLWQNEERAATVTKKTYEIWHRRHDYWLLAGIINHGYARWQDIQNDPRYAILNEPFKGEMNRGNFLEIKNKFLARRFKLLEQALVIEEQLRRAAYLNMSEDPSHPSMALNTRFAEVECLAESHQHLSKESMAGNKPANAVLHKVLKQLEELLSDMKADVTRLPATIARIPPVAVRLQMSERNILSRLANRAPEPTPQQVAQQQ
UniProt Q92769: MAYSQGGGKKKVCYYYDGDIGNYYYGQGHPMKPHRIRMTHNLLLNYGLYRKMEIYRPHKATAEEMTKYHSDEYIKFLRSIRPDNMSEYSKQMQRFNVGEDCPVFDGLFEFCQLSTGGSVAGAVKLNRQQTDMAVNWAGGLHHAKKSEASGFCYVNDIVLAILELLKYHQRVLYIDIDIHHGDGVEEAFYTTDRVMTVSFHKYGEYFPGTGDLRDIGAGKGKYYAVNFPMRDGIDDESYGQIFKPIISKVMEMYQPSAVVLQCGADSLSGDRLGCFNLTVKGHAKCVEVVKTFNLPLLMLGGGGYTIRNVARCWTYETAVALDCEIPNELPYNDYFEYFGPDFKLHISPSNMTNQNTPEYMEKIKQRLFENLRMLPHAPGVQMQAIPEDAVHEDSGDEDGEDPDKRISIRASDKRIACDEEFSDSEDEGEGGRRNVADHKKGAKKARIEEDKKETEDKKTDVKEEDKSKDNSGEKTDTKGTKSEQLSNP

T1: GST–PWWP2A (human) (UniProt Q96N64)
T1 sequence: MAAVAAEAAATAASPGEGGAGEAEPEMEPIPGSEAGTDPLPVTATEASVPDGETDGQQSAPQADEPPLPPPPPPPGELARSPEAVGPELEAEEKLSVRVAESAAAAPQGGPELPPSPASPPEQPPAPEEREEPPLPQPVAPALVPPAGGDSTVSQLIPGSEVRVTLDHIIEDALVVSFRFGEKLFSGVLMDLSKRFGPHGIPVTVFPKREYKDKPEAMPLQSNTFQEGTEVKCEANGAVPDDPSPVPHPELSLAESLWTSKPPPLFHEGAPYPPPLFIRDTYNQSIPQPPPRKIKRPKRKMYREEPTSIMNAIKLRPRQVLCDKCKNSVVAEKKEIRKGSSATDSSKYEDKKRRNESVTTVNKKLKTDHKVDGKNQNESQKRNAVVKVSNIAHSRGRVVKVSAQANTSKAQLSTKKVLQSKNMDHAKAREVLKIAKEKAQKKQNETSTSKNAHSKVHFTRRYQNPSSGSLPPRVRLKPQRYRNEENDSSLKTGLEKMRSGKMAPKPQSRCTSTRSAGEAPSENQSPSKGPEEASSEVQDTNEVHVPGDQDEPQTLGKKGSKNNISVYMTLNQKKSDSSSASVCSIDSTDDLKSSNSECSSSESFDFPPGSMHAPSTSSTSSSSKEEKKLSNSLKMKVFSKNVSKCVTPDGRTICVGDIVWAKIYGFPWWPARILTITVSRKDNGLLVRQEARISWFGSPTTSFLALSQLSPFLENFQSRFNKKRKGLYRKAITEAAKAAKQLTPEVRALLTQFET

T2: FLAG-PWWP2A (human), Q96N64
T2 chain: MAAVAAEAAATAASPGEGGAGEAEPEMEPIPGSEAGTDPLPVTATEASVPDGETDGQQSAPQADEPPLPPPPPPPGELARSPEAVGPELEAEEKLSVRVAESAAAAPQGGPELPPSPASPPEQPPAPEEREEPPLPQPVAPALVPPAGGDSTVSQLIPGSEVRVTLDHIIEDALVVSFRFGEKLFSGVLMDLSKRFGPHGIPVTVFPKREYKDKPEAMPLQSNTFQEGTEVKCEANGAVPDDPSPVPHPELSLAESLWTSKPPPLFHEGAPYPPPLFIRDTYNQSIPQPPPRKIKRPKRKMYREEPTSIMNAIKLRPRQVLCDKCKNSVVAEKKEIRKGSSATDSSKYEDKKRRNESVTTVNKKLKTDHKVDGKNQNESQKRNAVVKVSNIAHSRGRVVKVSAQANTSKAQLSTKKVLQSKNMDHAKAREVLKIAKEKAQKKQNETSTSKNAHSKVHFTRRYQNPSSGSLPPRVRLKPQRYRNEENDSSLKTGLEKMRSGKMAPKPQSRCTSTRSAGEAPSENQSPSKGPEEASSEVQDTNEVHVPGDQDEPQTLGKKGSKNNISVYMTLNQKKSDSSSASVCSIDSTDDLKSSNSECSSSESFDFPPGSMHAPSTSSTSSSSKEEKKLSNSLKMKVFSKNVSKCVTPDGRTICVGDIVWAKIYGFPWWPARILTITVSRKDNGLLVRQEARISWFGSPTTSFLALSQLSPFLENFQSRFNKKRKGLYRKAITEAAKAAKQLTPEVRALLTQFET

B1: PWWP2A (endogenous, mESC) (protein, UniProt Q69Z61 1-730)
chain: MAAVAAEAAATAASPGEGGAGEAEPELEPIPGSEAGTPLPVTATEAAVPDGEADGRQSAPQADEQPLPPPPPPPPPGELADSSEAEEAKPPEPAAVPVSPPEQPPAAPEQPEDAPRPPPAPALVPPAGGDSAVSHLIPGSEVRVTLDHIIEDALVVSFRLGEKLFSGVLMDLSKRFGPHGIPVTVFPKREYKDKPDAMQLQSTTFQEGIEVKQEVNGAVPDDLSPVPPPERLWASKPPPLFHEGAPYPPPLFIRDTYNQSIPQPPPRKIKRPKRKMYREEPTSIMNAIKLRPRQVLCDKCKNSVVAEKKEIRKGSSDSSRYEDKKRRNDSVATVNKKLKTDHKVDGKNQNESQRRNTVVRVSSIAHSRGRVVKVSAQANTSKAQLNTKKVLQSKNMDHAKAREVLKIAKEKAQKKQSETSTSKTAHAKVHFTRRYQSPSSGSLPPRVRLKPQRYRNEENDSSLKTGLEKIRSGKLAPKPQSRCTSTRSAGEAPSEKPSPSEGPEESAGEVQDTSRVRVPGEQEELRMLGKKGSKSSISVYLTLNQETSDSSSASVCSIDSMDDLKSSNSECSSSESFVFPPGCMHAPSASSTSTSFSSKEENSLRNSLKMKIFSKNVSKCITPDGRTICVGDIVWAKIYGFPWWPARILTITVSRKDNGLLARQEARISWFASPTTSSLALSQLSPFLENFQLRFNKKRKGLYRRAITEAAKAAKQLTPEVRALLTQFET
B2: HA-MTA2, Q9R190 1-668 (protein)
chain: MAANMYRVGDYVYFENSSSNPYLVRRIEELNKTANGNVEAKVVCLFRRRDISSSLNSLADSNAREFEEESKQPGVSEQQRHQLKHRELFLSRQFESLPATHIRGKCSVTLLNETDILNQYLDKEDCFFYSLVFDPVQKTLLADQGEIRVGCKFQAEIPDRLAEGESDNRNQQKMEMKVWDPDNPLTDRQIDQFLVVARAVGTFARALDCSSSIRQPSLHMSAAAASRDITLFHAMDTLQRNGYDLAKAMSTLVPQGGPVLCRDEMEEWSASEAMLFEEALEKYGKDFNDIRQDFLPWKSLASIVQFYYMWKTTDRYIQQKRLKAAEADSKLKQVYIPTYTKPNPNQIISVGSKPGMNGAGFQKGLTCESCHTTQSAQWYAWGPPNMQCRLCASCWIYWKKYGGLKTPTQLEGAARGTTEPHSRGHLSRPEAQSLSPYTTSANRAKLLAKNRQTFLLQTTKLTRLARRMCRDLLQPRRAARRPYAPINANAIKAECSIRLPKAAKTPLKIHPLVRLPLATIVKDLVAQAPLKPKTPRGTKTPINRNQLTQNRGLGGIMVKRSYETMAGAGVPFSANGRPLASGIRSSSQPAAKRQKLNPADAPNPVVFVATKDTRALRKALTHLEMRRAARRPNLPLKVKPTLMTVRPPVPLPASSHPASTNEPIVLED

Experiments:
GST–PWWP2A (human) = molecular target: T1, GST–PWWP2A (human); assay: pull-down; GST proteins on glutathione beads incubated overnight at 4 °C with S1 mononucleosomes from 1 x 10^7 HK cells; washes with 150 or 300 mM NaCl; immunoblot; only the target purified
[1] = molecular target: MTA1–FLAG (endogenously tagged, mESC) (mouse (endogenous in mESC)) (UniProt Q8K4B0); assay: co-IP; mESC nuclear extract (200 µg), antibody on Protein G-Sepharose overnight at 4 °C, washes with 150 and 300 mM NaCl, immunoblot
[2] = molecular target: T2, FLAG-PWWP2A (human), Q96N64; assay: co-IP; as a8, but cells co-expressing HA-MTA2 in place of HA-MTA1; conditions: remark: other sources report otherwise

Molecule | binding (GST–PWWP2A (human)) | further results
CHD4 (from UniProt Q14839 1-1912) (enzyme) | no binding | 
HDAC2 (from UniProt Q92769 1-488) (enzyme) | binds | 
B1 |  | binding [1]: binds
B2 |  | binding [2]: no binding
